This is one part of the list.
Compound: Cc1cc(ccc1-c1ccccc1)C(=O)N1CCCN(CC1)C(=O)CCl [compound 10]
Assay: probe-labelled cysteine peptide fold change vs DMSO (competition) (log2 fold change); higher = less target engagement (more negative = stronger competition)
Settings: THP-1, incubation time: 4 h
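Note: competitive profiling in live THP-1 cells: cysteine peptides tagged with an iodoacetamide desthiobiotin (IA-DTB) probe, intensity after compound treatment relative to DMSO-treated cells.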

Amino acid sequences for entries named in this document (tags omitted). A change or cut given only in a name is not applied to a line headed by its entry.
UniProt Q8NBQ5: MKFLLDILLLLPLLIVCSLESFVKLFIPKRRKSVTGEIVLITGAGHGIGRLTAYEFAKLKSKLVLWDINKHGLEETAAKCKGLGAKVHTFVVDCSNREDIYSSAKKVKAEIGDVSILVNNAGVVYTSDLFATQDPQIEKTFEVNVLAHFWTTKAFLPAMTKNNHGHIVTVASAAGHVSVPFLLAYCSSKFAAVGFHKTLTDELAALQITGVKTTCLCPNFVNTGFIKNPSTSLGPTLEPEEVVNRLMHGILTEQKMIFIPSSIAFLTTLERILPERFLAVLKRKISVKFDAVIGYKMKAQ
UniProt Q13151: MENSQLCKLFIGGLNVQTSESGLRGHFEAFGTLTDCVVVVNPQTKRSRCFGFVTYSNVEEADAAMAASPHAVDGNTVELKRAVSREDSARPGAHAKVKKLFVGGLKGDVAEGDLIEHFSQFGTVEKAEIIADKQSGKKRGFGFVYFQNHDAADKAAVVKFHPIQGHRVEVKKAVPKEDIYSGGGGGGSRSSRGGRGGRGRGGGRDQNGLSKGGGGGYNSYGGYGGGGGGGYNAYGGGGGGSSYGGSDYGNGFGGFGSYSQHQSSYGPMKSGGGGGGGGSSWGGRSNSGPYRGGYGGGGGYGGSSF
UniProt P34932: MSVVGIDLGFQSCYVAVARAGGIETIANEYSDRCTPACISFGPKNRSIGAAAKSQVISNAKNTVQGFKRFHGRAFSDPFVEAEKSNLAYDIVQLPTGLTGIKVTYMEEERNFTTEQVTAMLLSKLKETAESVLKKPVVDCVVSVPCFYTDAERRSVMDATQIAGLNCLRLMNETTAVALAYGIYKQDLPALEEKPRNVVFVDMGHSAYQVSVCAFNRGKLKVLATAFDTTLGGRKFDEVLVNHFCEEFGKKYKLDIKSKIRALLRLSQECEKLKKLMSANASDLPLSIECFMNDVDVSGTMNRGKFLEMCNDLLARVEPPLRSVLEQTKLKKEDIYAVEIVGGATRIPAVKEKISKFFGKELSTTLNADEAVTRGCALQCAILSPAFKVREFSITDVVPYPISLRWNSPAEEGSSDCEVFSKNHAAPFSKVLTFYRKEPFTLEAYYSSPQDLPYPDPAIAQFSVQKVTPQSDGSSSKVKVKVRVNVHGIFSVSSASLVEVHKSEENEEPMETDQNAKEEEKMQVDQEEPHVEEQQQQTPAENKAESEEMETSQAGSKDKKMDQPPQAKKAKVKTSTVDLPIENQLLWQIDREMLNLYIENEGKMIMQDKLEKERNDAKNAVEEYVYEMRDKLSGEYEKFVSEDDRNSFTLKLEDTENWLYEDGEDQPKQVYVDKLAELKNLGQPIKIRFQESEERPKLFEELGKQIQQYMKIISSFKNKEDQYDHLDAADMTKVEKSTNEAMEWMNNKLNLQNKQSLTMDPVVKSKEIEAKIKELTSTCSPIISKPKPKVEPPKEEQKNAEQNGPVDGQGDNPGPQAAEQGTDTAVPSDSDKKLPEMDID
UniProt P51659: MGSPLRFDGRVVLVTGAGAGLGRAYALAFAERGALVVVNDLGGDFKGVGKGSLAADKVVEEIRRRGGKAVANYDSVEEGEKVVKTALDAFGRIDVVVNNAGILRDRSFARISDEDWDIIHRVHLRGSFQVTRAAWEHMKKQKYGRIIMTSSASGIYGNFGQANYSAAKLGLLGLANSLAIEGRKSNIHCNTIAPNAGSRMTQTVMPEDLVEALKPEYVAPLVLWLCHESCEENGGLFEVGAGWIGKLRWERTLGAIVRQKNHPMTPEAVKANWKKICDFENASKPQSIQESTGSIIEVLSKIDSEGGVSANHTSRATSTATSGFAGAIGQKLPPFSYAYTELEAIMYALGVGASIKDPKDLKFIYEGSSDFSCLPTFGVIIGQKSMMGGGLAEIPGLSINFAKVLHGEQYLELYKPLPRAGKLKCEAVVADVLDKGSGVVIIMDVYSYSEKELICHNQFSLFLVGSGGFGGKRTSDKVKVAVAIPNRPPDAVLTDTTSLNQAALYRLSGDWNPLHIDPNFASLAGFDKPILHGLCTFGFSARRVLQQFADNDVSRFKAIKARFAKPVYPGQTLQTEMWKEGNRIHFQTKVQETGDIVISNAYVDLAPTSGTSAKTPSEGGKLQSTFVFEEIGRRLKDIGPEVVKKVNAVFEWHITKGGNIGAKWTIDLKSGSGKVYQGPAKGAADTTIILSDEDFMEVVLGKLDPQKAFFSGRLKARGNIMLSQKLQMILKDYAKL
UniProt Q00839, whole entry, looked up: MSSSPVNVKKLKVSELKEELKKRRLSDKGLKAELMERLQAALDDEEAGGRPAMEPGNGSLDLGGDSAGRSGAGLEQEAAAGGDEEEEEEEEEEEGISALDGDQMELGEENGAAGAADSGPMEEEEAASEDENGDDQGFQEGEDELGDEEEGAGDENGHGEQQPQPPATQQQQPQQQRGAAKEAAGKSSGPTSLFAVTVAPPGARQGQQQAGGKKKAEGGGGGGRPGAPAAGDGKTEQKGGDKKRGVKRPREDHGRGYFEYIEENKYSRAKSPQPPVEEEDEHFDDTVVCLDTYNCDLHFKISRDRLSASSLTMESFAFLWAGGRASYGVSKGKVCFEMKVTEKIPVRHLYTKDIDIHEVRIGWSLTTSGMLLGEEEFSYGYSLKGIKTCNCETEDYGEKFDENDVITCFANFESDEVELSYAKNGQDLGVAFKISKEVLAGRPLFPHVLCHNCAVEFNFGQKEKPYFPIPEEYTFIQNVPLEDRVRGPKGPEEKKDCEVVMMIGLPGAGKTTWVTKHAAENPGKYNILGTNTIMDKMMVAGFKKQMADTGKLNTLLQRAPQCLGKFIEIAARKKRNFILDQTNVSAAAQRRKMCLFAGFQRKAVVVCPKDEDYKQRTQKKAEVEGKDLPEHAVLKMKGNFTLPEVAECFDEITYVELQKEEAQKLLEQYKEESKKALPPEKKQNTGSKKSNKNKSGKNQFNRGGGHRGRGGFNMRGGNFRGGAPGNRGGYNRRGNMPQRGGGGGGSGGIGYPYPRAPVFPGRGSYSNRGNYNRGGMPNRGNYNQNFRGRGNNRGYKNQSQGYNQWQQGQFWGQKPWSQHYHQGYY
UniProt P00738: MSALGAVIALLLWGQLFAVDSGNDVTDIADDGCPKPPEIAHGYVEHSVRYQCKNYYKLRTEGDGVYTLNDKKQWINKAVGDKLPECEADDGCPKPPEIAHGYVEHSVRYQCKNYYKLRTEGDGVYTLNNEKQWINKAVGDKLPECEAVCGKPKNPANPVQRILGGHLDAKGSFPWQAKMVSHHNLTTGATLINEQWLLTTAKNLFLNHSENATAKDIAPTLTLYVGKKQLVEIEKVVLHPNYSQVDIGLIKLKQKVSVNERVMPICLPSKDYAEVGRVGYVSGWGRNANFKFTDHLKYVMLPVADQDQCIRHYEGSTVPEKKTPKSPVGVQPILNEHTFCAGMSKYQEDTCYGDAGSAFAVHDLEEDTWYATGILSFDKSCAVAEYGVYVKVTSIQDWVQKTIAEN
UniProt P56937: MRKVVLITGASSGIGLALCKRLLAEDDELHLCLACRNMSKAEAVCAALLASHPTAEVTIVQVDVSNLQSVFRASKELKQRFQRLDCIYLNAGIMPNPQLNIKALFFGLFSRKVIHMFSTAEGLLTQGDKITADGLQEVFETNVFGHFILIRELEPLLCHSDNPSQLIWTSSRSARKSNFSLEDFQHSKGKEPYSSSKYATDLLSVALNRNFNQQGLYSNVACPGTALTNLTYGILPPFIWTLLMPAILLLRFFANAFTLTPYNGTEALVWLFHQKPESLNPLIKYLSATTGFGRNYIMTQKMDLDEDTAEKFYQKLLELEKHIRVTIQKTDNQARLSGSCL
UniProt Q6YN16: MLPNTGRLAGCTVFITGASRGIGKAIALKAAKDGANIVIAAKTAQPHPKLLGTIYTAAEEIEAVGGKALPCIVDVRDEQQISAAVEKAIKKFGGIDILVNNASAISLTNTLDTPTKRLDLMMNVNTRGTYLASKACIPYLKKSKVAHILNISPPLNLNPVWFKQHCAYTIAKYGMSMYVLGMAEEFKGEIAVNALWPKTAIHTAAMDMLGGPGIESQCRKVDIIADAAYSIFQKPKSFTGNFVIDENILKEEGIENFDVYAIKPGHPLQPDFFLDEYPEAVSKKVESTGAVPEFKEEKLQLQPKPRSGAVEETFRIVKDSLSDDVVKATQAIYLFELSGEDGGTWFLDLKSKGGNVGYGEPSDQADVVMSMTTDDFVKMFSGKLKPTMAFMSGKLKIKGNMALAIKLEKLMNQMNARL
UniProt Q9UPZ3: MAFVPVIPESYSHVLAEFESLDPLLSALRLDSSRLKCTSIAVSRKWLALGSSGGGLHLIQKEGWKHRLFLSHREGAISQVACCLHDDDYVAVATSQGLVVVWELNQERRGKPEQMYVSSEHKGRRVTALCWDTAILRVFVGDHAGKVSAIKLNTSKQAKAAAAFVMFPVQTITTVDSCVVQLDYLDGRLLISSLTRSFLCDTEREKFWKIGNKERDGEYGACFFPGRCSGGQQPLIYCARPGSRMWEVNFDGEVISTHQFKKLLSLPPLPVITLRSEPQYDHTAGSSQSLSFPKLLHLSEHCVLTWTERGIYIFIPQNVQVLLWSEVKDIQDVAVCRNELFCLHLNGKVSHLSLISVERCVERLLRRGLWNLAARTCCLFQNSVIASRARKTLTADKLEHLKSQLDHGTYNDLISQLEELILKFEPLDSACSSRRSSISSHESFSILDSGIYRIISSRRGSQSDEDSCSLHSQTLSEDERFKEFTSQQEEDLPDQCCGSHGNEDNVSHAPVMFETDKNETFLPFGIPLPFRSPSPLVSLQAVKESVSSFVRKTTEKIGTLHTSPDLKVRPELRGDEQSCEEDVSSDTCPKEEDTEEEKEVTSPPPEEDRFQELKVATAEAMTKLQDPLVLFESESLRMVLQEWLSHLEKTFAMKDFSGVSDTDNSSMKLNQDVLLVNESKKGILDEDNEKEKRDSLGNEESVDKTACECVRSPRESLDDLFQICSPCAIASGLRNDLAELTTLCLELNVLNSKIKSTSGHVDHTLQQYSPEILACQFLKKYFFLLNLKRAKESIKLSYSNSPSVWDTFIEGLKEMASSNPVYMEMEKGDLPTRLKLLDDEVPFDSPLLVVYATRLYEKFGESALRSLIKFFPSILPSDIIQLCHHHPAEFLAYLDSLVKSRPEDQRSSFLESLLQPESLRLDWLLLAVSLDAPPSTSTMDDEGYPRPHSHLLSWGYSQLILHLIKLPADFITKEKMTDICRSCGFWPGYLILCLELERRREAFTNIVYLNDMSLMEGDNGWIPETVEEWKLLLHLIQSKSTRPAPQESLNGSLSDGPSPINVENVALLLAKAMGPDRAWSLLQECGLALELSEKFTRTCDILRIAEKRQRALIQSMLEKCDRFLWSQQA
UniProt O60921: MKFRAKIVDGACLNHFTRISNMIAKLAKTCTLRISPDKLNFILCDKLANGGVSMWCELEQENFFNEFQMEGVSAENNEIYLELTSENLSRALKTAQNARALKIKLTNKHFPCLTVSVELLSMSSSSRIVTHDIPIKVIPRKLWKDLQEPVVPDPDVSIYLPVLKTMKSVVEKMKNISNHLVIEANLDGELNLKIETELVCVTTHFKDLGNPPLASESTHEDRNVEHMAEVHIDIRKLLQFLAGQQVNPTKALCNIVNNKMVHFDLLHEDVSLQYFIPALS
UniProt Q14103: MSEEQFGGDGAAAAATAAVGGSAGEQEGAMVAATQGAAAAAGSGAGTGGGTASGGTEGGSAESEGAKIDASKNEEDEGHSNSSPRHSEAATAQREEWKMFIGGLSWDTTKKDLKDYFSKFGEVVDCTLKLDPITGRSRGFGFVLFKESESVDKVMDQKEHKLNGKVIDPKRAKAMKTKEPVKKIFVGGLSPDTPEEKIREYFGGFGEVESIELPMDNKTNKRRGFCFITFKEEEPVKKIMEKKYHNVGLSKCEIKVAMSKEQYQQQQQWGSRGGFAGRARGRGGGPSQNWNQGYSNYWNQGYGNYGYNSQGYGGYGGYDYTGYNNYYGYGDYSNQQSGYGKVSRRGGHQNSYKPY
UniProt Q00613: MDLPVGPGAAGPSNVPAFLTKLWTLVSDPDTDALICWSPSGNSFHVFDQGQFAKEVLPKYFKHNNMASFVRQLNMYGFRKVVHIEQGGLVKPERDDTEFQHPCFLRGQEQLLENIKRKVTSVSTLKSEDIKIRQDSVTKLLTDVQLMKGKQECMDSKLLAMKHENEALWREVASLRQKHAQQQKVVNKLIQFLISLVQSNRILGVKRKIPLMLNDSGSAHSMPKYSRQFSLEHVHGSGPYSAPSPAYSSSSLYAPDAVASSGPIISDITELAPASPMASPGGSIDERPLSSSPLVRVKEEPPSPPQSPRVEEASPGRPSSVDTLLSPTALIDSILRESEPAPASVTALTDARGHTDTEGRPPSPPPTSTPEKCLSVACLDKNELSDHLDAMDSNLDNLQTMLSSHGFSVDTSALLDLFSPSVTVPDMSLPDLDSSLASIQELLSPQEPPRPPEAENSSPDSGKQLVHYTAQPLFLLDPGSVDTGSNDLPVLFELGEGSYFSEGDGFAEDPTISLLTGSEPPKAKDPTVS

Row | Target | probe-labelled cysteine peptide fold change (10 µM) | probe-labelled cysteine peptide fold change (50 µM)
1 | HSD17B11_Q8NBQ5_215+217_TTCLCPNFVNTGFIK (UniProt Q8NBQ5) | 0.115 | -0.449
2 | HNRNPA0_Q13151_7_MENSQLCK (UniProt Q13151) | 0.0576 | -0.305
3 | HSPA4_P34932_34+38_CTPACISFGPK (UniProt P34932) | -0.00552 | -0.423
4 | HSD17B4_P51659_373_FIYEGSSDFSCLPTFGVIIGQK (UniProt P51659) | 0.115 | 0.149
5 | HNRNPU_Q00839_450_PLFPHVLCHNCAVEFNFGQK (UniProt Q00839) | 0.144 | 0.0368
6 | HSP90AA1_P07900_598_LVTSPCCIVTSTYGWTANMER (UniProt P07900) | -0.00946 | 0.102
7 | HP_P00738_340_SPVGVQPILNEHTFCAGMSK (UniProt P00738) | -0.196 | 0.49
8 | HSD17B7_P56937_158_ELEPLLCHSDNPSQLIWTSSR (UniProt P56937) | 0.191 | 0.329
9 | HSDL2_Q6YN16_166_QHCAYTIAK (UniProt Q6YN16) | -0.107 | -0.063
10 | HPS5_Q9UPZ3_775_STSGHVDHTLQQYSPEILACQFLK (UniProt Q9UPZ3) | 0.0829 | 0.02
11 | HUS1_O60921_44_LNFILCDK (UniProt O60921) | 0.0823 | -0.125
12 | HNRNPD_Q14103_226_GFCFITFK (UniProt Q14103) | 0.23 | 0.223
13 | HNRNPA0_Q13151_36_GHFEAFGTLTDCVVVVNPQTK (UniProt Q13151) | 0.0272 | -0.135
14 | HSF1_Q00613_373_CLSVACLDK (UniProt Q00613) | -0.339 | -0.524

A second format for part of the listing above.
Row	Target	probe-labelled cysteine peptide fold change (10 µM)	probe-labelled cysteine peptide fold change (50 µM)
5	HNRNPU_Q00839_450_PLFPHVLCHNCAVEFNFGQK (UniProt Q00839)	0.144	0.0368
6	HSP90AA1_P07900_598_LVTSPCCIVTSTYGWTANMER (UniProt P07900)	-0.00946	0.102

From the supplement of paper PMC12067093, “Discovery and optimisation of a covalent ligand for TRIM25 and its application to targeted protein ubiquitination” (Chemical Science, 2025)
